This is one part of the list.
What was measured:
Experiment in all cases: log2 fold change, soluble protein after heating vs DMSO (PISA); higher = thermal stabilisation; K562 lysate, 10 uM; active = over 0.2 and 3.5 SD of the protein, either way, in both replicates (recomputed)
vemurafenib = compound: CCCS(=O)(=O)Nc1ccc(F)c(C(=O)c2c[nH]c3ncc(-c4ccc(Cl)cc4)cc23)c1F [vemurafenib]
Summary of the method: (§1)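 Log-two fold change in thermal stability relative to solvent controls is reported from duplicates. For each sample, crude K562 extract from dounce-homogenised pellets in PBS pH 7.4 with 1 mM MgCl2, at 1 mg/mL protein, was treated with 10 μM compound for 30 min. Aliquots heated for 3 min across 48°C-58°C were pooled, brought to 0.5% NP-40 at 4°C and cleared at 21,000xg for 90 min. The supernatant was quantified by TMTpro 16plex LC-MS/MS with channel sums equalised.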

Sequences of proteins named here, by UniProt entry; tags and fusion partners are left off. A change or cut given only in a name is not applied to a line headed by its entry.
UniProt Q5BKY9: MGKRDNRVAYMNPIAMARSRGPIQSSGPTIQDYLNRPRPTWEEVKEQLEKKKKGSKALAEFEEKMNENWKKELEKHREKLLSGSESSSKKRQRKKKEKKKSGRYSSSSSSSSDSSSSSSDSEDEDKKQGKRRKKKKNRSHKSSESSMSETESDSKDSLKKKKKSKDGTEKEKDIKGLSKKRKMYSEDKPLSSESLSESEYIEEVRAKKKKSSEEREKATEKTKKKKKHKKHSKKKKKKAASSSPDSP
UniProt Q9NUQ9: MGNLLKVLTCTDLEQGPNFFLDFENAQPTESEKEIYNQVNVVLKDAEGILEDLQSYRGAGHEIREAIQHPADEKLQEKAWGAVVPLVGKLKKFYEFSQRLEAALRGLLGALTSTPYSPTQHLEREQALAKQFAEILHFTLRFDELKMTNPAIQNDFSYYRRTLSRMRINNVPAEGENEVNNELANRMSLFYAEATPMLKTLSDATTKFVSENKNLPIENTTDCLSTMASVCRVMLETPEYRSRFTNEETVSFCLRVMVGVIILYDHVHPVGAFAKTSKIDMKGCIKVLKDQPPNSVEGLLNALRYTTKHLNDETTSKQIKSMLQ
UniProt Q93063: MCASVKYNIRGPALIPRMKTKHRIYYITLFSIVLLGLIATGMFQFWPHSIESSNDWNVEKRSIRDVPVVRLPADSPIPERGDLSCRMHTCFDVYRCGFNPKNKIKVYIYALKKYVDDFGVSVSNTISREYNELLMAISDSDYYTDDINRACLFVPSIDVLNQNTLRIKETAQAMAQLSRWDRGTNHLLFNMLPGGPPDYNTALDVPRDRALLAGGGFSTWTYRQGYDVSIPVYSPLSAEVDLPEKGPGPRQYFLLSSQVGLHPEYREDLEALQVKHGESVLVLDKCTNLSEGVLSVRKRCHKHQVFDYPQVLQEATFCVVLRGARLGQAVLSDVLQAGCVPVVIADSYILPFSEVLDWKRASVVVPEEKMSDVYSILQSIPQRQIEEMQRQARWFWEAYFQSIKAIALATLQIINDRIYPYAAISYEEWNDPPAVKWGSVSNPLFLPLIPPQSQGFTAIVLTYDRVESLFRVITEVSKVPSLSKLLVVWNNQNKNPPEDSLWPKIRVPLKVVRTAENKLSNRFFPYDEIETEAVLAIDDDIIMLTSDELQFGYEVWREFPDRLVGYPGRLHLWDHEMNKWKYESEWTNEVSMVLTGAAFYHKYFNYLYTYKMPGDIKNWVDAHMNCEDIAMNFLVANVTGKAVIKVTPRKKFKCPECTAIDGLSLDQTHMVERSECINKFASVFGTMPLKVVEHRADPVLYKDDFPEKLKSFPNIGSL
UniProt Q14674: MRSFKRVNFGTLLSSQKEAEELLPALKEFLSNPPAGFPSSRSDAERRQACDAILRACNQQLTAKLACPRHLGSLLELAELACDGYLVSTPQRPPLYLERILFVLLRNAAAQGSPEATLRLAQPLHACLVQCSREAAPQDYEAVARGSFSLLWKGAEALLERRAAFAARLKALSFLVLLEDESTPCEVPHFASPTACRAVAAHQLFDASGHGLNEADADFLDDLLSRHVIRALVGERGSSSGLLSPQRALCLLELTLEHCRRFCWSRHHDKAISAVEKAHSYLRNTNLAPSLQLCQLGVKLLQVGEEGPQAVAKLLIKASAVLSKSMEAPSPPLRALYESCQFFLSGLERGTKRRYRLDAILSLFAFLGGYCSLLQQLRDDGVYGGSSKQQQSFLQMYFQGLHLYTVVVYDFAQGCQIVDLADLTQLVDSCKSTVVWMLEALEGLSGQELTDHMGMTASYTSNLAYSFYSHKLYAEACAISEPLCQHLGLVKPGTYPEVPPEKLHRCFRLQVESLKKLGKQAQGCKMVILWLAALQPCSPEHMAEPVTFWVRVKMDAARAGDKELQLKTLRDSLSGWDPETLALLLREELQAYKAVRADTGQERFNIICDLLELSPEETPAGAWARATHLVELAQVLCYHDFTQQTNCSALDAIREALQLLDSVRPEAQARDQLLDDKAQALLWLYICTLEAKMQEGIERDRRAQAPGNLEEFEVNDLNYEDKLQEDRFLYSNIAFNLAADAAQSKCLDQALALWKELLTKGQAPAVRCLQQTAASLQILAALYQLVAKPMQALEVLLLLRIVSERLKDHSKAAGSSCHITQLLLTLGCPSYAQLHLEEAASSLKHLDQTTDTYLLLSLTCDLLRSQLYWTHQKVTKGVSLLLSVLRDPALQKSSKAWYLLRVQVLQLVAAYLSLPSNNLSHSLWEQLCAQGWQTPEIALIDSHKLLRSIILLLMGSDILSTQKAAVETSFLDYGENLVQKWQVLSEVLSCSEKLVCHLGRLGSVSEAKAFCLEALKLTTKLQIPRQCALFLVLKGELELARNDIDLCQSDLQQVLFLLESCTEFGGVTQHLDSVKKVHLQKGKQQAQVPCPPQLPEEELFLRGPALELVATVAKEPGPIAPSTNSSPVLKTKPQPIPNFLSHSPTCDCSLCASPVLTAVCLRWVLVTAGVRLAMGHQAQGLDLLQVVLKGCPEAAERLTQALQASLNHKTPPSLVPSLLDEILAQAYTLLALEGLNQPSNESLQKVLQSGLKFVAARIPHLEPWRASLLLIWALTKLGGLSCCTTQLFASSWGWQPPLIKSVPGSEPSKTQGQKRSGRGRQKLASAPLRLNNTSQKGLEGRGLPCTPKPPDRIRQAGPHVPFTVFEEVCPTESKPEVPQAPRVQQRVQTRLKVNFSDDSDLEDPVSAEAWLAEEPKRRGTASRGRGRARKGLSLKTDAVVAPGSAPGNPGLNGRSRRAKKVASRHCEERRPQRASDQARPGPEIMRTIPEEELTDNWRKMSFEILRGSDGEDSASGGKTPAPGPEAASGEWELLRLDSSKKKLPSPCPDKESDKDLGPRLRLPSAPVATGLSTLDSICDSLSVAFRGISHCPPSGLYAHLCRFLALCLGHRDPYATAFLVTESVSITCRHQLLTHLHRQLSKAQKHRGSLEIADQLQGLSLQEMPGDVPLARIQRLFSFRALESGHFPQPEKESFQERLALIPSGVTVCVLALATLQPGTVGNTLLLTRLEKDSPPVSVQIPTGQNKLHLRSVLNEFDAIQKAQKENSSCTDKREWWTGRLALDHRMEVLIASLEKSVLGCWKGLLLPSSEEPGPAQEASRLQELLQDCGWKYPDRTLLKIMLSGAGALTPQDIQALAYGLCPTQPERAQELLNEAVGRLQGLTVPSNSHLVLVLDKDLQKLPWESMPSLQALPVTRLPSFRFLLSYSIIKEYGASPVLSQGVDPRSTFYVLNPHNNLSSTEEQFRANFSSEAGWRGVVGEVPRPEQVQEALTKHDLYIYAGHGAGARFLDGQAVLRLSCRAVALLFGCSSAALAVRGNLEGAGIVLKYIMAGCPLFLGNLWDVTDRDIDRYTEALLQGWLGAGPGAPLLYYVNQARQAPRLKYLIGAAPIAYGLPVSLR
UniProt O60447: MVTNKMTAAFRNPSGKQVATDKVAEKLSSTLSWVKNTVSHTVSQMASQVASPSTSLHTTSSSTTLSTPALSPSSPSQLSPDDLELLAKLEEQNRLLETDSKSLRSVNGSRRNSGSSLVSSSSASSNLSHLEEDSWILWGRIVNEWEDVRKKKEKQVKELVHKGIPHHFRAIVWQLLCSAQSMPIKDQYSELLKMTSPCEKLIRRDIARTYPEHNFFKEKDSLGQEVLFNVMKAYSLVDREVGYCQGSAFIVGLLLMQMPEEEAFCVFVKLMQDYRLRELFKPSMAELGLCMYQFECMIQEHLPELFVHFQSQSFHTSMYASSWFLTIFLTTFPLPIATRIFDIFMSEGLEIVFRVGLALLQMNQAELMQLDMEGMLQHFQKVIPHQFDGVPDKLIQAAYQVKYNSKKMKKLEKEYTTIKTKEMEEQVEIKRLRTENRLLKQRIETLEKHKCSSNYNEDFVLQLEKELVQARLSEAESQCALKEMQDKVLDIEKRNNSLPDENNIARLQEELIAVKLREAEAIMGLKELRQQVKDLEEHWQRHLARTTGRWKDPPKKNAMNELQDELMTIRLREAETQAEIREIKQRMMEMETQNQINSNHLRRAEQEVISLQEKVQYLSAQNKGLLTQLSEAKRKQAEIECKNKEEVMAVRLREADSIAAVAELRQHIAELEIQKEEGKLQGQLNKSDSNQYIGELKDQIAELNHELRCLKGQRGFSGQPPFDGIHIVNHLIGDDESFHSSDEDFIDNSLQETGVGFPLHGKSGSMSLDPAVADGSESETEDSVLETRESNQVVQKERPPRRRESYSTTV
UniProt Q15024, whole entry, looked up: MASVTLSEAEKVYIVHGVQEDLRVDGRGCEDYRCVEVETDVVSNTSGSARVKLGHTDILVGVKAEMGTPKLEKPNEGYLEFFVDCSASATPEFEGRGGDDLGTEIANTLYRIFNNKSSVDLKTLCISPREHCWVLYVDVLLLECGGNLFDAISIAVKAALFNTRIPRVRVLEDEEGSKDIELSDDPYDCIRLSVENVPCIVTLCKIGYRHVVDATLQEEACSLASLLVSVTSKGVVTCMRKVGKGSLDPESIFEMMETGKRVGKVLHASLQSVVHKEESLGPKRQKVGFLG
UniProt Q06265, whole entry, looked up: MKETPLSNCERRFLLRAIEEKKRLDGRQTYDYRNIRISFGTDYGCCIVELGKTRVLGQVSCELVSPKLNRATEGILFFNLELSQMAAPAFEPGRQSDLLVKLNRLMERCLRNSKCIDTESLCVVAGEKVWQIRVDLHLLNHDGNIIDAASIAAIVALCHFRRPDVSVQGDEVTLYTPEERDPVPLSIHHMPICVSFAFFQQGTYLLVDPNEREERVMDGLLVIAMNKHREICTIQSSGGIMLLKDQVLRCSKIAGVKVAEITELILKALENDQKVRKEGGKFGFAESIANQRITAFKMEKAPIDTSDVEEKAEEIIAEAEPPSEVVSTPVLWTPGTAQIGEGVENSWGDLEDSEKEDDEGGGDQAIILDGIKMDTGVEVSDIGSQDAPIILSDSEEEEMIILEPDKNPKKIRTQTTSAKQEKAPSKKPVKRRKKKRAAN
UniProt O75477: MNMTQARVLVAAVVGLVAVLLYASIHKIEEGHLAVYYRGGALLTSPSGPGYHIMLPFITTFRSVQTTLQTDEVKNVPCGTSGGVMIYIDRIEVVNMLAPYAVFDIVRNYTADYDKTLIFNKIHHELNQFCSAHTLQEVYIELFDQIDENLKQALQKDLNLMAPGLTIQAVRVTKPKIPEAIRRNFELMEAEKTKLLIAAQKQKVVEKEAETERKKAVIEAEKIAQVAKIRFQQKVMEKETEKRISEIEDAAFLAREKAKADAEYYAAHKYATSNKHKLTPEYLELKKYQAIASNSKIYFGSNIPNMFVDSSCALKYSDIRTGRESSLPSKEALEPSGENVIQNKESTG
UniProt Q9BSJ8: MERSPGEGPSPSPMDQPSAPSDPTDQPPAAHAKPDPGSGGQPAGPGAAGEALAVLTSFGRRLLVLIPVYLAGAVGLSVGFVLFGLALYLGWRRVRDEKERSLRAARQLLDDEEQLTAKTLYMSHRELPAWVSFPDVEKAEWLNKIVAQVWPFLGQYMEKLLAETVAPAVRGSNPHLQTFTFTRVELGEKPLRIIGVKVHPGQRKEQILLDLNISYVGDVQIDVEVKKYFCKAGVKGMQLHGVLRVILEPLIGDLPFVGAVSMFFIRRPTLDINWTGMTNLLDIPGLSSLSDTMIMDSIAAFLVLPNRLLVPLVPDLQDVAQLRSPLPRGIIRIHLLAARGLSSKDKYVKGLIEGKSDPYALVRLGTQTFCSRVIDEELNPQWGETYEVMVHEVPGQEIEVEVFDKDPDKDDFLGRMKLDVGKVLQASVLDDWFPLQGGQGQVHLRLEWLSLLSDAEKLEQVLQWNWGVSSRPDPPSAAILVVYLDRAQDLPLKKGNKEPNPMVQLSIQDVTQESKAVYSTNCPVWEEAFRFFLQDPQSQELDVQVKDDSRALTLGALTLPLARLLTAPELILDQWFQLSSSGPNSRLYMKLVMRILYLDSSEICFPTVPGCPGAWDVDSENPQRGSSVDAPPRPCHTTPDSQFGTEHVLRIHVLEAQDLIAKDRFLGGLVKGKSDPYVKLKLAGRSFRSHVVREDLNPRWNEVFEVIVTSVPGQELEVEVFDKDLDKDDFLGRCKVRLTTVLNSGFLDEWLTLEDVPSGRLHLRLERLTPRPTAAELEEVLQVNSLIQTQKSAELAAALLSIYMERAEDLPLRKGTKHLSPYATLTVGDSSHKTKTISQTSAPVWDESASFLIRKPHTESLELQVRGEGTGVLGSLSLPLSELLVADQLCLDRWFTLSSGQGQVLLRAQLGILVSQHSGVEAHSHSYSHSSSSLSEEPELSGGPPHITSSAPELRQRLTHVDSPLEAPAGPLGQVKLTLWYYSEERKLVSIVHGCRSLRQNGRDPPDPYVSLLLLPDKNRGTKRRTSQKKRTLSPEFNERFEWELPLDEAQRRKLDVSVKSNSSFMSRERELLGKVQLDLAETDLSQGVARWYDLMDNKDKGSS

[1] = compound: CCCS(=O)(=O)Nc1ccc(F)c(C(=O)c2c[nH]c3ncc(Cl)cc23)c1F
Summary of the method: as §1

barasertib = compound: CCN(CCCOc1ccc2c(Nc3cc(CC(=O)Nc4cccc(F)c4)[nH]n3)ncnc2c1)CCOP(=O)(O)O [barasertib]
Summary of the method: as §1

[2] = compound: CC[C@@H]1C(=O)N(C)c2cnc(Nc3ccc(C(=O)NC4CCN(C)CC4)cc3OC)nc2N1C1CCCC1
Summary of the method: as §1

volasertib = compound: CC[C@@H]1C(=O)N(C)c2cnc(Nc3ccc(C(=O)N[C@H]4CC[C@H](N5CCN(CC6CC6)CC5)CC4)cc3OC)nc2N1C(C)C [volasertib]
Summary of the method: as §1

[3] = compound: CCn1c(C(=O)N(C2CC2)C2CC2)cc2c3c(ncn3C)c(Nc3cc(C)n(C)n3)nc21
Summary of the method: as §1

[4] = compound: CCn1cc(-c2ccnc3[nH]c(-c4cccc(CN(C)C)c4)cc23)c(-c2ccc(NC(=O)N(C)C)cc2)n1
Summary of the method: as §1

[5] = compound: CN1CCC(CNc2ccc3ncc(-c4cccc(OC(F)(F)F)c4)n3n2)CC1
Summary of the method: as §1

saracatinib = compound: CN1CCN(CCOc2cc(OC3CCOCC3)c3c(Nc4c(Cl)ccc5c4OCO5)ncnc3c2)CC1 [saracatinib]
Summary of the method: as §1

sotrastaurin = compound: CN1CCN(c2nc(C3=C(c4c[nH]c5ccccc45)C(=O)NC3=O)c3ccccc3n2)CC1 [sotrastaurin]
Summary of the method: as §1

alvocidib = compound: CN1CC[C@H](c2c(O)cc(O)c3c(=O)cc(-c4ccccc4Cl)oc23)[C@H](O)C1 [alvocidib]
Summary of the method: as §1

Tubastatin A = compound: CN1CCc2c(c3ccccc3n2Cc2ccc(C(=O)NO)cc2)C1 [Tubastatin A]
Summary of the method: as §1

[6] = compound: CNC(=O)C1=CC=CC=C1NC2=NC(=NC=C2Cl)NC3=C(C=C(C=C3)N4CCOCC4)OC
Summary of the method: as §1

defactinib = compound: CNC(=O)c1ccc(Nc2ncc(C(F)(F)F)c(NCc3nccnc3N(C)S(C)(=O)=O)n2)cc1 [defactinib]
Summary of the method: as §1

[7] = compound: CNc1nc(-c2ccc3c(N)n[nH]c3c2)cc(N2C[C@@H](C(=O)NC3CCCCC3)CC[C@H]2C)n1
Summary of the method: as §1

encorafenib = compound: COC(=O)N[C@@H](C)CNc1nccc(-c2cn(C(C)C)nc2-c2cc(Cl)cc(NS(C)(=O)=O)c2F)n1 [encorafenib]
Summary of the method: as §1

[8] = compound: COC(=O)[C@H](CCSC)NC(=O)C1=C(C=C(C=C1)NC[C@H](CS)N)C2=CC=CC=C2
Summary of the method: as §1

alisertib = compound: COc1cc(Nc2ncc3c(n2)-c2ccc(Cl)cc2C(c2c(F)cccc2OC)=NC3)ccc1C(=O)O [alisertib]
Summary of the method: as §1

[9] = compound: COc1cc2nc(-c3cc(F)ccc3O)nc(N[C@@H]3CNC[C@H]3C(C)(C)O)c2cc1OC
Summary of the method: as §1

gefitinib = compound: COc1cc2ncnc(Nc3ccc(F)c(Cl)c3)c2cc1OCCCN1CCOCC1 [gefitinib]
Summary of the method: as §1

| Target | log2 fold change (vemurafenib) | log2 fold change [1] | log2 fold change (barasertib) | log2 fold change [2] | log2 fold change (volasertib) | log2 fold change [3] | log2 fold change [4] | log2 fold change [5] | log2 fold change (saracatinib) | log2 fold change (sotrastaurin) | log2 fold change (alvocidib) | log2 fold change (Tubastatin A) | log2 fold change [6] | log2 fold change (defactinib) | log2 fold change [7] | log2 fold change (encorafenib) | log2 fold change [8] | log2 fold change (alisertib) | log2 fold change [9] | log2 fold change (gefitinib) |
| --- | --- | --- | --- | --- | --- | --- | --- | --- | --- | --- | --- | --- | --- | --- | --- | --- | --- | --- | --- | --- |
| FAM133B (UniProt Q5BKY9) | inactive: 0.124 | inactive: -0.027 | inactive: 0.076 | inactive: -0.22 | inactive: 0.008 | inactive: 0.023 | inactive: 0.323 | inactive: -0.16 | inactive: 0.057 | inactive: 0.017 | inactive: 0.103 | inactive: 0.018 | inactive: -0.21 | inactive: -0.021 | inactive: 0.002 | inactive: 0.039 | inactive: -0.071 | inactive: 0.056 | inactive: -0.093 | inactive: 0.184 |
| FAM49B (UniProt Q9NUQ9) | inactive: -0.004 | inactive: -0.017 | inactive: -0.008 | inactive: -0.034 | inactive: 0.013 | inactive: -0.012 | inactive: 0.021 | inactive: 0.025 | inactive: -0.004 | inactive: -0.023 | inactive: -0.004 | inactive: 0.021 | inactive: -0.01 | inactive: 0.037 | inactive: 0.011 | inactive: 0.029 | inactive: -0.06 | inactive: 0.02 | inactive: -0.001 | inactive: 0.013 |
| EXT2 isoform 3 (UniProt Q93063) | inactive: 0.062 | inactive: 0.081 | inactive: -0.052 | inactive: 0 | inactive: -0.09 | inactive: -0.006 | inactive: -0.056 | inactive: -0.019 | inactive: 0.141 | inactive: -0.016 | inactive: 0.038 | inactive: 0.005 | inactive: -0.17 | inactive: -0.076 | inactive: -0.042 | inactive: 0.046 | inactive: -0.041 | inactive: -0.018 | inactive: 0.052 | inactive: 0.043 |
| ESPL1 (UniProt Q14674) | inactive: 0.049 | inactive: 0.204 | inactive: 0.054 | inactive: 0.039 | inactive: 0.09 | inactive: -0.002 | inactive: -0.047 | inactive: -0.012 | inactive: -0.065 | inactive: -0.023 | inactive: 0.044 | inactive: -0.023 | inactive: 0.129 | inactive: -0.188 | inactive: 0.053 | inactive: 0.101 | inactive: -0.013 | inactive: 0.004 | inactive: -0.233 | inactive: -0.009 |
| EXOSC8 (UniProt Q96B26) | inactive: -0.116 | inactive: 0.008 | inactive: -0.037 | inactive: 0.028 | inactive: 0.018 | inactive: -0.002 | inactive: -0.049 | inactive: 0.015 | inactive: 0.011 | inactive: 0.054 | inactive: 0.049 | inactive: -0.049 | inactive: -0.01 | inactive: 0.034 | inactive: -0.059 | inactive: 0.018 | inactive: 0 | inactive: 0.036 | inactive: 0.015 | inactive: 0 |
| EVI5 isoform 2 (UniProt O60447) | inactive: -0.214 | inactive: 0.132 | inactive: -0.008 | inactive: -0.02 | inactive: -0.068 | inactive: 0.015 | inactive: 0.001 | inactive: -0.075 | inactive: 0.096 | inactive: -0.117 | inactive: -0.02 | inactive: -0.156 | inactive: -0.055 | inactive: 0.108 | inactive: 0.019 | inactive: 0.734 | inactive: -0.02 | inactive: 0.041 | inactive: -0.098 | inactive: -0.034 |
| FAH (UniProt P16930) | inactive: -0.036 | inactive: 0.005 | inactive: -0.038 | inactive: 0.023 | inactive: 0.032 | inactive: -0.016 | inactive: -0.177 | inactive: 0.157 | inactive: -0.007 | inactive: -0.024 | inactive: -0.052 | inactive: 0.038 | inactive: 0.008 | inactive: 0.039 | inactive: 0.043 | inactive: -0.007 | inactive: -0.043 | inactive: -0.01 | inactive: -0.009 | inactive: 0.003 |
| EXOC3 (UniProt O60645) | inactive: 0.049 | inactive: 0.021 | inactive: 0.02 | inactive: -0.081 | inactive: -0.086 | inactive: 0.045 | inactive: -0.057 | inactive: -0.001 | inactive: 0.004 | inactive: 0.03 | inactive: 0.011 | inactive: -0.063 | inactive: 0.009 | inactive: 0.031 | inactive: -0.037 | inactive: 0.001 | inactive: 0.07 | inactive: 0.032 | inactive: -0.023 | inactive: -0.001 |
| EXOC6 (UniProt Q8TAG9) | inactive: -0.041 | inactive: 0.033 | inactive: 0.032 | inactive: -0.033 | inactive: -0.047 | inactive: 0.032 | inactive: -0.05 | inactive: -0.075 | inactive: 0.018 | inactive: 0.06 | inactive: -0.014 | inactive: -0.092 | inactive: 0.013 | inactive: 0.008 | inactive: -0.017 | inactive: 0.015 | inactive: 0.039 | inactive: 0.007 | inactive: 0.016 | inactive: 0.003 |
| EXOSC7 (UniProt Q15024) | inactive: 0.001 | inactive: 0.01 | inactive: -0.011 | inactive: 0.029 | inactive: 0.045 | inactive: -0.004 | inactive: -0.126 | inactive: 0.087 | inactive: 0.008 | inactive: -0.037 | inactive: -0.082 | inactive: 0.038 | inactive: -0.027 | inactive: -0.012 | inactive: 0.048 | inactive: 0.004 | inactive: -0.034 | inactive: 0.035 | inactive: 0.011 | inactive: 0.009 |
| FAM120A isoform 6 (UniProt Q9NZB2) | inactive: 0.033 | inactive: 0.009 | inactive: -0.019 | inactive: 0.013 | inactive: -0.021 | inactive: -0.022 | inactive: -0.026 | inactive: 0.018 | inactive: 0.007 | inactive: -0.009 | inactive: 0 | inactive: -0.018 | inactive: 0.017 | inactive: 0.007 | inactive: 0.003 | inactive: 0.001 | inactive: -0.18 | inactive: -0.005 | inactive: -0.006 | inactive: -0.017 |
| EXOSC9 (UniProt Q06265) | inactive: -0.02 | inactive: 0.012 | inactive: -0.017 | inactive: 0.037 | inactive: 0.014 | inactive: -0.038 | inactive: 0.024 | inactive: -0.007 | inactive: -0.033 | inactive: -0.007 | inactive: 0.008 | inactive: 0.045 | inactive: 0.001 | inactive: -0.052 | inactive: 0.04 | inactive: 0.026 | inactive: -0.111 | inactive: 0.001 | inactive: 0.01 | inactive: -0.037 |
| ERVK3-1, A0A0U1RQV1 | inactive: 0.088 | inactive: -0.039 | inactive: 0.056 | inactive: -0.003 | inactive: -0.006 | inactive: -0.018 | inactive: -0.291 | inactive: 0.139 | inactive: 0.084 | inactive: -0.004 | inactive: -0.051 | inactive: 0.008 | inactive: 0.029 | inactive: 0.044 | inactive: 0.053 | inactive: -0.01 | inactive: -0.036 | inactive: 0.056 | inactive: 0.011 | inactive: -0.036 |
| ERLIN1 (UniProt O75477) | inactive: 0.01 | inactive: 0.013 | inactive: 0.008 | inactive: -0.037 | inactive: -0.029 | inactive: 0.033 | inactive: 1.01 | inactive: -0.059 | inactive: 0.041 | inactive: -0.023 | inactive: 0.006 | inactive: -0.058 | inactive: -0.001 | inactive: -0.024 | inactive: -0.066 | inactive: 0.086 | active: -0.216 | inactive: -0.007 | inactive: -0.028 | inactive: 0.035 |
| ESYT1 isoform 2 (UniProt Q9BSJ8) | inactive: 0.004 | inactive: -0.009 | inactive: 0.012 | inactive: -0.05 | inactive: -0.037 | inactive: -0.027 | inactive: -0.04 | inactive: 0.035 | inactive: 0.027 | inactive: 0.061 | inactive: -0.019 | inactive: 0.042 | inactive: -0.011 | inactive: 0.015 | inactive: -0.022 | inactive: 0.023 | inactive: 0.035 | inactive: -0.001 | inactive: 0.183 | inactive: -0.031 |
| FAM118B (UniProt Q9BPY3) | inactive: -0.06 | inactive: 0.03 | inactive: 0.004 | inactive: -0.014 | inactive: 0.001 | inactive: 0.022 | inactive: -0.03 | inactive: -0.027 | inactive: 0.004 | inactive: 0.048 | inactive: -0.023 | inactive: -0.058 | inactive: -0.002 | inactive: 0.037 | inactive: -0.009 | inactive: 0.026 | inactive: -0.048 | inactive: -0.011 | inactive: -0.043 | inactive: 0.016 |

Looked up above.
Under log2 fold change [1], FAM133B (UniProt Q5BKY9) has inactive: -0.027
Under log2 fold change [1], EXOSC8 (UniProt Q96B26) has inactive: 0.008
